Where “and” joins values, the source holds several entries; their conditions need not be identical. Identical values can stand only once. This continues a long series; more values of the same kind are listed elsewhere.
Experiment: Plasma pharmacokinetics after oral multi-dose anatabine polacrilex
Assay type: in vivo, Sprague-Dawley rats
Conditions: for Cp, min (2): after dose 2, mean; for Cp, min (1): after dose 1, mean; for Anatabine Concentration in rat plasma: individual animals
Procedure: This study consisted of two groups of 8 animals each, 4 males and 4 females.
The vehicle was sterile phosphate buffered saline (PBS) (Amresco). […] Two formulations were prepared; one for each of the two treatment groups. The test compound was formulated for each treatment group just prior to the first dose administration and constantly stirred until dosing was completed (Table 37). Four aliquots of each dose level formulation were collected and stored at −80° C.
The animals were weighed prior to dosing and received three doses p.o. of test compound at a volume of 5 mL/kg. Blood was collected via the venus plexus (retro-orbital) into tubes containing (K2) EDTA. No more than 0.5 mL was collected per time point.
Sample preparation. Plasma samples were treated with three volumes of methanol containing internal standard at 1 μM (R,S)-Antabine-2,4,5,6-d4), incubated 10 min at 4° C., and centrifuged. The amount of the test agent in the supernatant was determined by LC/MS/MS.
Analysis. Samples were analyzed by LC/MS/MS using an Agilent 6410 mass spectrometer coupled with an Agilent 1200 high pressure liquid chromatography (HPLC) and a CTC PAL chilled autosampler, all controlled by MassHunter software (Agilent). After separation on a Hydrophilic interaction liquid chromatography (HILIC) HPLC column (Sepax) using an acetonitrile-ammonium acetate/acetic acid gradient system, peaks were analyzed by mass spectrometry (MS) using ESI ionization in multiple reaction monitoring (MRM) mode. MassHunter software was used to calculate the concentration of the test compounds in samples from the peak area using the appropriate calibration curves.
Descriptive statistics were calculated for all pharmacokinetic parameters. Elimination half-lives (t1/2) were calculated by linear regression of logarithmically transformed plasma concentration data for each period between doses and following the final dose.
Total areas under the plasma concentration curves (AUC) and under the first moment curves (AUMC) were calculated using linear trapezoidal summation across all concentration time points as well as for intervals between each dose administration and following the final dose. […] Mean absorption times (MAT) were calculated according to the following relation: […]

[1] = Anatabine 6.0 mg/kg, female rats

Compound: C1=CCC(c2cccnc2)NC1 (racemic) [Anatabine, 1,2,3,6-tetrahydro-[2,3′]bipyridinyl]
- Cp, min (2) (Anatabine 0.6 mg/kg, female rats): 7.5 ng/mL
- Cp, min (1) (Anatabine 0.6 mg/kg, male rats): 11.0 ng/mL
- Cp, min (1) [1]: 52 ng/mL
- Cp, min (2) [1]: 180 ng/mL and 180.0 ng/mL
- Cp, min (1) (Anatabine 6.0 mg/kg, male rats): 75 ng/mL
- Cp, min (2) (Anatabine 6.0 mg/kg, male rats): 93 ng/mL
- Anatabine Concentration in rat plasma (dose 0.2 mg/kg, female, 30 min): 34 ng/mL (2×) and 42 ng/mL and 38 ng/mL
- Anatabine Concentration in rat plasma (dose 0.2 mg/kg, female, 60 min): 29 ng/mL and 33 ng/mL and 47 ng/mL and 25 ng/mL
- Anatabine Concentration in rat plasma (dose 0.2 mg/kg, female, 235 min): 4 ng/mL and 18 ng/mL and 6 ng/mL and 13 ng/mL
- Anatabine Concentration in rat plasma (dose 0.2 mg/kg, female, 270 min): 14 ng/mL and 11 ng/mL and 17 ng/mL and 51 ng/mL
- Anatabine Concentration in rat plasma (dose 0.2 mg/kg, female, 300 min): 18 ng/mL and 31 ng/mL and 25 ng/mL and 44 ng/mL
- Anatabine Concentration in rat plasma (dose 0.2 mg/kg, female, 475 min): 7 ng/mL (2×) and 6 ng/mL and 10 ng/mL
- Anatabine Concentration in rat plasma (dose 0.2 mg/kg, female, 540 min): 24 ng/mL and 44 ng/mL and 29 ng/mL (2×)
- Anatabine Concentration in rat plasma (dose 0.2 mg/kg, female, 600 min): 12 ng/mL and 18 ng/mL and 20 ng/mL and 45 ng/mL
- Anatabine Concentration in rat plasma (dose 0.2 mg/kg, female, 720 min): 18 ng/mL and 15 ng/mL (2×) and 7 ng/mL
- Anatabine Concentration in rat plasma (dose 0.2 mg/kg, male, 30 min): 29 ng/mL and 37 ng/mL and 34 ng/mL
- Anatabine Concentration in rat plasma (dose 0.2 mg/kg, male, 60 min): 32 ng/mL and 34 ng/mL and 24 ng/mL and 26 ng/mL
- Anatabine Concentration in rat plasma (dose 0.2 mg/kg, male, 235 min): 11 ng/mL and 13 ng/mL and 9 ng/mL
- Anatabine Concentration in rat plasma (dose 0.2 mg/kg, male, 270 min): 35 ng/mL and 31 ng/mL and 20 ng/mL and 26 ng/mL
- Anatabine Concentration in rat plasma (dose 0.2 mg/kg, male, 300 min): 22 ng/mL (2×) and 26 ng/mL and 29 ng/mL
- Anatabine Concentration in rat plasma (dose 0.2 mg/kg, male, 475 min): 9 ng/mL and 18 ng/mL and 19 ng/mL
- Anatabine Concentration in rat plasma (dose 0.2 mg/kg, male, 540 min): 4 ng/mL and 28 ng/mL and 41 ng/mL and 43 ng/mL
- Anatabine Concentration in rat plasma (dose 0.2 mg/kg, male, 600 min): 17 ng/mL and 35 ng/mL and 34 ng/mL
- Anatabine Concentration in rat plasma (dose 0.2 mg/kg, male, 720 min): 5 ng/mL and 12 ng/mL and 19 ng/mL
- Anatabine Concentration in rat plasma (dose 2 mg/kg, female, 235 min): 75 ng/mL and 36 ng/mL and 23 ng/mL and 72 ng/mL
- Anatabine Concentration in rat plasma (dose 2 mg/kg, female, 300 min): 97 ng/mL
- Anatabine Concentration in rat plasma (dose 2 mg/kg, male, 235 min): 46 ng/mL and 63 ng/mL and 84 ng/mL
- Anatabine Concentration in rat plasma (dose 2 mg/kg, male, 720 min): 71 ng/mL
